Primary screen of a compound library

From ChEMBL document CHEMBL3988442, “University of Dundee, Small-Polar-MMV Screening Library” (2021).

Results are given as percent effect.
How 0% and 100% were set is not recorded. Most values in the screen are low, and negative values occur.
The compounds are a random part of those screened.
A dash means the value is not listed here; it may have been measured.

T. brucei: 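Whole-parasite assay of Trypanosoma brucei over 72 hours; the read-out is not stated. Compounds at 30 µM. Direction is inferred from retests: higher values go with stronger inhibition. Values scatter widely below zero; nearly all retest evidence comes from the higher of the two concentrations used. Of about 64,000 compounds tested this way, about 940 (1.5%) reached 50% or more in at least one test.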
Toxoplasma: 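Assay of Toxoplasma gondii numbers, read through their beta-galactosidase reporter with a colour substrate. Tested at 10 µM. Higher reads as fewer parasites (inferred from which compounds were picked for retests). Of about 67,000 compounds tested this way, about 260 (0.38%) reached 50% or more in at least one test.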

compound	T. brucei	Toxoplasma
CN1CCN(Cc2cn3c(n2)CN(C2CCOCC2)CC3)CC1.O=C(O)C(F)(F)F.O=C(O)C(F)(F)F.O=C(O)C(F)(F)F	-52.81%	9.094%
Cc1cnccc1-n1nc(C(C)C)nc1CS(C)(=O)=O	-24.91%	2.854%
Cc1ncsc1-c1ccn(CC(=O)Nc2cnn(C)n2)n1	-1.136%	-1.006%
C[C@@H]1CN(C(=O)c2cccs2)C[C@]12CCN(CCN(C)C)C2=O.O=C(O)C(F)(F)F	-25.2%	4.541%
Nc1nc2c(c(NCC(c3cccnc3)N3CCOCC3)n1)CCNC2 (stereo unspecified)	-21.15%	-16.05%
[H][C@@]12CS(=O)(=O)C[C@]1([H])N(C(=O)c1ccc(COC)o1)CCN2CC1CC1	-5.524%	6.805%
CC(C)(C)Nc1c(C2CCN(C(=O)C3CC3)CC2)nc2ccccn12	1.373%	1.059%
CCn1c(CC2CCN(C(=O)c3cc(C(C)C)n[nH]3)CC2)n[nH]c1=O	-	-14.97%
O=C1CC(c2ccc(C(F)(F)F)cc2)c2snc(C(=O)O)c2N1 (stereo unspecified)	-18.65%	3.165%
Cc1ccccc1C(CNC(=O)CSc1nnc(N)s1)N(C)C (stereo unspecified)	6.691%	0.0609%
Cc1ccc2nc(CN3CCCCC3CCN3CCOCC3)cn2c1 (stereo unspecified)	-51.54%	-2.301%
Cc1ccc(CN2Cc3nccn3CC(Cn3cccn3)C2)s1.O=C(O)C(F)(F)F (stereo unspecified)	-82.43%	-26.61%
CN(CCOCC1CC1)C(=O)Nc1ccc([S+](C)[O-])cc1 (stereo unspecified)	-30.03%	21.23%
COc1ccccc1CNC(=O)N1CCCC(CO)C1 (stereo unspecified)	-45.66%	1.016%
CNC(=O)CNC1CC2(CCN(c3ncccn3)CC2)c2ccccc21.O=C(O)C(F)(F)F.O=C(O)C(F)(F)F (stereo unspecified)	-34.73%	-3.15%
[H][C@@]12CS(=O)(=O)C[C@]1([H])N(C(=O)CSc1ccccn1)CCN2C(=O)C1CC1	-35.72%	2.026%
COc1ccc(COCC(O)CNC(=O)c2cc(C)oc2C)cc1 (stereo unspecified)	3.999%	-8.509%
COc1cccc(-c2nc(C)c(C(=O)N[C@@H](C)C(=O)O)s2)c1	-42.04%	-5.977%
CCn1ccnc1CN1CCCN(C(=O)Cc2ccc(F)cc2)CC1	-	14.79%
CN1CCOC(C(=O)N2CCC3(CCCC3)CC2)C1 (stereo unspecified)	-5.907%	-2.684%
Fc1ccccc1Cc1noc(CN2CCC(C3CCCCC3)C2)n1 (stereo unspecified)	-77.88%	-0.5164%
CC(C)NC(=O)CN1CCSC2(CCCCC2)C1	-31.28%	-7.728%
COCCNC(=O)c1c(-n2cnnn2)sc2c1CCCC2	-17.26%	-19.01%
CCN(CC)Cc1cc(C(=O)N2CCCC(O)(CO)C2)c(C)o1 (stereo unspecified)	-25.63%	3.448%
CNc1c(NCc2ccco2)c(=O)c1=O	-18.2%	3.114%
COC(=O)[C@H]1CN(C(C)=O)CCN1C(C)=O	-19.93%	-4.685%
CC(C)N(C)Cc1cn2c(n1)CN(C(=O)Cc1ccccc1)CC2.O=C(O)C(F)(F)F	-29.84%	-4.727%
CC(=O)Nc1nc(-c2ccc(C)c(C)c2)c[nH]1	-19.73%	-2.241%
COCCCNc1cc(C)nn2cnnc12	-23.03%	36.97%
N[C@H]1CN(C(=O)c2ccc(Cl)cc2O)C[C@@H]1C1CC1	-54.16%	8.375%
Cc1occc(=O)c1OCc1noc(C(=O)NC2CCCC2)n1	-40.07%	16.96%
O=C(Cc1cccs1)N1CCn2cc(Cn3cccn3)nc2C1.O=C(O)C(F)(F)F	-429.5%	-17.99%
COc1c(C)cnc(CN(C)C2CCCCC2)c1C	75.58%	62.27%
CN(C)CCn1ccc(NC(=O)NC(C)(C)c2nccs2)n1	-12.24%	-2.304%
COc1cccc(CNc2cccnc2-n2cccn2)c1OC	-5.864%	7.509%
CC(CO)NC(=O)c1ccc(NCc2ccccc2)cc1 (stereo unspecified)	11.13%	-3.83%
CCn1nc2c(cc1=O)CN(Cc1coc(-c3ccccc3)n1)CC2	3.49%	-11.21%
CCc1oc(C(=O)N(C)Cc2ccncc2)cc1CN(CC)CC	-7.313%	-7.689%
NC(=O)C1(CNCc2csc(-c3cccs3)n2)CCOCC1	-1.289%	-3.246%
OCC(CO)Nc1cccc(C(F)(F)F)n1	-4.391%	-1.61%
Cc1nc(C(=O)NCc2ccccn2)cc(C2CCCN2)n1 (stereo unspecified)	-	10.66%
Cn1[nH]c(C2CC2)c(-c2ccc3c(c2)OCO3)c1=N	-21.44%	-9.079%
c1cncc(-n2cnnc2CCCN2CCOCC2)c1	18.07%	3.853%
[H][C@@]12CS(=O)(=O)C[C@]1([H])N(Cc1cnn(-c3ccc(F)cc3)c1)CCN2C	-62.87%	13.42%
Cc1cccc(OCCC(=O)NCC(C)(C)C(N)=O)c1	13.9%	-4.375%
Cc1ccccc1OCC(=O)N1CC[C@]2(C[C@@H](OCC3CC3)CO2)C1	-46.02%	-4.853%
CCC(CC)NC(=O)NCc1ccnc(-n2ccnc2C)c1	-49.32%	-8.414%
O=C(NC1CC1)N1CCN(c2cnccn2)CC1	-17.3%	-12.16%
CCN1CC(C(=O)NC(C)(C)CNC(=O)OC(C)(C)C)CC1=O (stereo unspecified)	9.706%	5.688%
COC(=O)C1CCCCN1C(=O)c1cn(C/C=C/c2ccccc2)nn1 (stereo unspecified)	-36.9%	2.507%
O=C(c1ccc[nH]1)N1CCc2cc(S(=O)(=O)N3CCOCC3)ccc2C1	-1.857%	-3.415%
NC(=O)c1ccc(N2CCCCC2)c(NC(=O)c2ccc(F)cc2Cl)c1	-34.18%	-4.369%
C[C@]1(O)CCN(Cc2c[nH]cn2)C[C@@H]1Oc1cccc(F)c1	34.07%	10.83%
NC(=O)CSc1ccccc1NC(=O)CC1C=CCC1 (stereo unspecified)	-23.03%	-37.91%
Cc1ccc(C)c(CS(=O)(=O)CC(=O)NCCCOC(C)C)c1	-	4.084%
CCOCC1CN(Cc2csc(C)n2)Cc2nccn2C1.O=C(O)C(F)(F)F (stereo unspecified)	-21.46%	-5.677%
COc1ccccc1NC(=O)c1cc2c([nH]c1=O)CCCC2=O	-36.81%	-1.14%
CC(NC(=O)NC1CCN(Cc2ccncc2)CC1)c1ccc(F)cc1 (stereo unspecified)	-18.99%	1.503%

Repeated from the top, 4 entries:

compound	T. brucei	Toxoplasma
CN1CCN(Cc2cn3c(n2)CN(C2CCOCC2)CC3)CC1.O=C(O)C(F)(F)F.O=C(O)C(F)(F)F.O=C(O)C(F)(F)F	-52.81%	9.094%
Cc1cnccc1-n1nc(C(C)C)nc1CS(C)(=O)=O	-24.91%	2.854%
Cc1ncsc1-c1ccn(CC(=O)Nc2cnn(C)n2)n1	-1.136%	-1.006%
C[C@@H]1CN(C(=O)c2cccs2)C[C@]12CCN(CCN(C)C)C2=O.O=C(O)C(F)(F)F	-25.2%	4.541%